The name of at least one read-out is uncertain.
Test system: gray mold fungus (Botrytis cinerea)
Test: Cucumber leaf disk preventive test against gray mold fungus (Test Examples 1, 2 and Reference Example)
Format: in vivo
Details: heterocyclic compound alone, 15° C., four days
Procedure: True leaf of cucumber is punched out with cork borer to 13 mm in diameter to prepare a leaf disk. In 24 well microwell plate that is dispensed with 1 ml 0.8% water agar, the leaf disk is placed such that the upper side of the leaf is in an upward direction. Thereto is added 20 micro liter a testing solution prepared by mixing a dimethyl sulfoxide solution of the present compound (racemate) and a dimethyl sulfoxide solution of ferimzone or oxolinic acid to a predetermined concentration to treat the leaf disk.
After confirming that the testing medical solution is dried, conidium of gray mold fungus (Botrytis cinerea) is suspended into potato dextrose broth (DIFCO) in a density of about 10^5 conidium/mL and is then subjected to a spray inoculation. After leaving to stand the leaf disk in a growth chamber set up at 15° C. for four days, an onset area on the leaf is measured and then calculated an onset area rate (hereinafter, referred to as an onset area rate of treated group).
The same operation is carried out with 20 micro liter water instead of 20 micro liter a testing medicine solution to calculate an onset area rate (hereinafter, referred to an onset area rate of non-treated group).
A preventive value is calculated from the above onset area rate of treated group and the onset area rate of non-treated group by the following equation:
Preventive value(%)=100×(A−B)/A […]

## C/C(=N/Nc1nc(C)cc(C)n1)c1ccccc1C [ferimzone]
0.5 ppm
  preventive value (%): 5%
5.0 ppm
  preventive value (%): 10%
